Data as given in article PMC12040169 (PLOS Biology, 2025).
This is one part of the list.

test system: T1, CTL2-GFP (C. trachomatis L2/434/Bu, GFP-expressing); set-up: species or system HeLa; Intracellular C. trachomatis growth in HeLa cells, bulk GFP fluorescence relative to DMSO; conditions: bulk GFP, single well; 28.5 h, 10 µM; inhibitor
T1 construct: L2/434/Bu, GFP-expressing

Row | Structure (SMILES) | % of control remaining
1 | O=c1ccc2c(-c3cccc(C(F)(F)F)c3)ccnc2[nH]1 [CBK073733] | 117.859%
2 | CN(C)CC1CCCN(C(=O)[C@@H]2C[C@@H]3C=C[C@H]2C3)C1 (some centres unmarked) [CBK282063] | 165.827%
3 | CC(C)N(C(=O)Cn1c(-c2ccco2)cc2cccnc21)C(C)C [CBK282682] | 86.8165%
4 | O=C(CN1CCC(Cc2ccccc2)CC1)Nc1ccc(S(=O)(=O)N2CCOCC2)cc1 [CBK268451] | 105.098%
5 | Cc1cc(=O)n2ncn(CC(=O)NCCOc3ccccc3)c2c1 [CBK305823] | 98.0726%
6 | Cc1nn2c(O)c3c(nc2c1-c1cccs1)CCC3 [CBK283729] | 115.97%
7 | O=C(O)CCCN1C(=O)/C(=C/c2c[nH]c3ccccc23)SC1=S [CBK262580] | 104.747%
8 | CNC(=O)C1(Cc2cccc(-c3cccs3)c2)CCN(C(=O)Cc2ccccc2)CC1 [CBK285745] | 123.063%
9 | O=C(Nc1cccc(CCc2nc3ccccc3[nH]2)c1)c1ccc(Cn2cncn2)cc1 [CBK285648] | 93.5801%
10 | CC(C)[C@H](CO)Nc1nccnc1-c1cccc(O)c1 [CBK037542] | 110.321%
11 | CC(C)[C@H](NS(=O)(=O)c1ccc(Cl)cc1)C(=O)NCc1ccc(Cn2cccn2)cc1 [CBK295611] | 128.203%
12 | O=C(NC(=S)Nc1cccc(-c2nc3ccccc3s2)c1)c1cc([N+](=O)[O-])ccc1N1CCOCC1 [CBK268789] | 118.861%
13 | COc1ccc(-c2cnc(NCC3CC3)c(C(=O)NCc3ccco3)c2)cc1 [CBK076283] | 71.5657%
14 | CC1Cc2cc(C(O)(CCN(C)C)c3ccccc3)ccc2O1 (centres unmarked) [CBK011764] | 113.061%
15 | O=C(NCC1(O)CCSCC1)c1ccc2ccccc2n1 [CBK305211] | 137.218%
16 | Cc1cccc(Nc2ncc(Cc3ccccc3C)s2)n1 [CBK287849] | 126.739%
17 | CNC(=O)[C@@H]1CN(Cc2ccccc2)C[C@H]1C(=O)c1ccc(F)cc1 [CBK282902] | 131.997%
18 | Cc1ccc(-c2c(C(=O)NNC(=S)NCc3ccco3)csc2C)cc1 [CBK266992] | 112.56%
19 | NC(=O)c1c(NC(=O)NCc2cccnc2)sc2c1CCC2 [CBK307578] | 168.115%
20 | CC(C)=NNC(=O)Nc1nonc1N [CBK027368] | 96.7257%
21 | O=C(NC[C@H]1O[C@@H](CC(=O)N2CCCC2)[C@H](O)[C@@H]1O)c1ccccc1 [CBK288907] | 102.608%
22 | OCCOc1ccccc1OCCO [CBK260930] | 106.981%
23 | CC(C)(C)OC(=O)N1CCN(c2ccccc2O)CC1 [CBK003878] | 119.168%
24 | c1ccc(CCCN2CCN(Cc3ccccc3)CC2)cc1 [CBK261878] | 100%
25 | Cc1cc(C)c(NC(=O)CSc2ncccc2-c2nc(C)no2)c(C)c1 [CBK287821] | 115.908%
26 | CCCSc1nnc(NC(=O)c2nc(SC)ncc2Cl)s1 [CBK268759] | 115.469%
27 | O=C(c1ccco1)N1CCN(c2cc(-c3cccc4cccnc34)ncn2)CC1 [CBK091117] | 182.204%

Reprinted at random: 4 compounds from above.
Row | Structure (SMILES) | % of control remaining
22 | OCCOc1ccccc1OCCO [CBK260930] | 106.981%
27 | O=C(c1ccco1)N1CCN(c2cc(-c3cccc4cccnc34)ncn2)CC1 [CBK091117] | 182.204%
20 | CC(C)=NNC(=O)Nc1nonc1N [CBK027368] | 96.7257%
21 | O=C(NC[C@H]1O[C@@H](CC(=O)N2CCCC2)[C@H](O)[C@@H]1O)c1ccccc1 [CBK288907] | 102.608%

As a short view, part of the list above.
Row | Structure (SMILES) | % of control remaining
18 | Cc1ccc(-c2c(C(=O)NNC(=S)NCc3ccco3)csc2C)cc1 [CBK266992] | 112.56%
19 | NC(=O)c1c(NC(=O)NCc2cccnc2)sc2c1CCC2 [CBK307578] | 168.115%
20 | CC(C)=NNC(=O)Nc1nonc1N [CBK027368] | 96.7257%

Remaining list, next part

Row | Structure (SMILES) | % of control remaining
28 | CCOC(=O)CNC(=O)c1cc(Br)c(OC)c(OC)c1 [CBK058454] | 98.3031%
29 | Cc1ccc([N+](=O)[O-])cc1NC1OCC(O)C(O)C1O (centres unmarked) [CBK262026] | 100%
30 | CCC1c2ccc(C)n2CCN1C(=O)c1cc(-c2ccccn2)n[nH]1 (centres unmarked) [CBK283225] | 123.761%
31 | CCCC/C=C/c1cncc(NCCc2c[nH]c3ccccc23)n1 [CBK066081] | 143.522%
32 | CN1CCN(C(=O)CN(c2ccccc2)S(=O)(=O)N(C)C)CC1 [CBK268079] | 118.643%
33 | CCC(CC)C(=O)N1C[C@H]2CCc3cn(CCNC(C)=O)nc3[C@H]2C1 [CBK282183] | 119.133%
34 | COc1cc(CN2CCOC3(CCN(C(=O)OCc4ccccc4)CC3)C2)cc(OC)c1OC [CBK161104T] | 121.538%
35 | CCc1ccc(-c2ccc(C(=O)OC)cn2)cc1 [CBK149232] | 193.478%
36 | Cc1ccc2c(Cl)c(-c3nnc(-c4ccc(Cl)cc4)o3)sc2c1 [CBK263682] | 100%
37 | Nc1ncnc2c1nc1n2[C@H]2C[C@@H](O)[C@@H](C1)O2 [CBK201254] | 94.3031%
38 | O=C(O)CCCOc1nc(C2CC2)cc(C(F)(F)F)n1 [CBK286886] | 124.071%
39 | COCCNc1cc(-c2ccccc2N(C)C)ncn1 [CBK090790] | 159.919%
40 | CC(O)CNCc1ccccc1OCc1ccccc1F (centres unmarked) [CBK270278C] | 121.186%
41 | COc1ccc(C2CC(=O)c3c(C)n[nH]c3C2)cc1 (centres unmarked) [CBK287911] | 78.5091%
42 | O=C(NCC1(O)CCSCC1)c1cc2ccccc2[nH]1 [CBK305199] | 122.534%
43 | Cc1cc(CNC(=O)/C=C/c2ccc(C(C)C)cc2)no1 [CBK149614] | 79.4799%
44 | CC(C)(C)c1cc(C(=O)NCC(=O)NCC(=O)O)cc(C(C)(C)C)c1 [CBK262200] | 109.475%
45 | CC(=O)NC(c1ccccn1)C1CCCN(C(=O)C(C)C)C1 (centres unmarked) [CBK285030] | 110.196%
46 | OC/C=C/c1cnc2ccccc2c1 [CBK001749] | 110.001%
47 | CCC(CC)NS(=O)(=O)c1cccc(C(=O)O)c1 [CBK287225] | 125.9%
48 | O=C(CN1C(=O)/C(=C/c2ccccc2)SC1=S)Nc1cccc(C(=O)O)c1 [CBK262171] | 111.892%
49 | COC(=O)c1cc(C#N)c(=O)n(CC(=O)N(C)Cc2ccsc2)c1 [CBK297788] | 123.015%
50 | NC(=O)C1(Cc2ccccc2-c2ccccc2)CCN(C(=O)Cc2ccccc2)CC1 [CBK285909] | 113.264%
51 | CC1(C)CC(NC(=O)CN2CCCCC2)CC(C)(C)N1 [CBK261956] | 137.177%
52 | COc1ccc([C@@]23CC[C@@H](NC(=O)Nc4ccc(Cl)cc4Cl)C[C@@H]2CN(C)C3)cc1OC [CBK085798T] | 83.5991%
53 | CCCN1CCC(N(C)CCN(CC)CC)CC1 [CBK261935] | 108.258%
54 | COc1ccc(OCCNC(=O)c2cc(-c3cccnc3)cnc2N2CCOCC2)cc1 [CBK076341] | 100%

Row | Structure (SMILES) | % of control remaining
55 | O=C(NCc1cccc(C(F)(F)F)c1)N1CCCCC1CO (centres unmarked) [CBK156165] | 114.843%
56 | Cc1cc(C)nc(NC(=O)c2c(Cl)cccc2Cl)n1 [CBK058401] | 150.034%
57 | OCC(O)/C=N/Nc1nc(N2CCCCC2)nc(N2CCCCC2)n1 (centres unmarked) [CBK019423] | 130.999%
58 | O=C(CSc1nnc(-c2cccnc2)n1-c1ccc(Br)cc1)Nc1ccc2c(c1)OCCO2 [CBK266133] | 125.691%
59 | C=CCc1cc(C)cc(C)c1OCCN1CCN(C)CC1 [CBK269672C] | 135.85%
60 | Nc1nnc(SCc2nc(=O)c3ccccc3[nH]2)s1 [CBK270059] | 117.484%
61 | O=C(c1cccnc1)N1CCc2ccccc21 [CBK200279] | 88.3791%
62 | COc1ccc2ccccc2c1CNCCCN1CCOCC1 [CBK278209C] | 131.861%
63 | Cc1csc2c(C3CCN(C(=O)c4ccn(C)n4)CC3)nc(C)n12 [CBK285248] | 102.908%
64 | CCOC(=O)c1c(NC(=S)N2CCN(S(C)(=O)=O)CC2)sc(C)c1-c1ccccc1 [CBK267072] | 128.975%
65 | O=S(=O)(Nc1nccnc1-c1ccc2c(c1)OCO2)c1cccc(Cl)c1 [CBK050951] | 94.3515%
66 | C[C@]12CN(Cc3cccc(C#Cc4ccccc4)c3)C[C@H]1C(=O)Nc1ccccc1C(=O)N2 [CBK286403] | 139.349%
67 | CCc1nc2ccc(C(=O)N3CCN(C)CC3)cn2c1N(C)Cc1nccn1C [CBK146299] | 84.8882%
68 | Cc1nc(-c2cccnc2)[nH]c(=O)c1CCC(=O)N1CC2CCC1C2 (centres unmarked) [CBK304198] | 134.779%
69 | CCCCn1c(CSc2ncccc2C(=O)O)nc2cc(S(=O)(=O)N3CCOCC3)ccc21 [CBK297558] | 114.664%
70 | CN1CCC(N2CCN(C(=O)NCCCN3CCCC3=O)CC2)CC1 [CBK156105] | 121.087%
71 | CC(C)(C(=O)N1CCC(CC(=O)NCCc2ccccc2F)CC1)c1ccc(F)cc1 [CBK286497] | 113.657%
72 | CC(C)CN1CCN(S(=O)(=O)c2ccc(C(F)(F)F)cc2Cl)CC1 [CBK062740] | 111.241%
73 | Cc1ccccc1OC(C)C(=O)Nn1cnnc1 (centres unmarked) [CBK268619] | 141.588%
74 | CCN(CC)C(=O)Cn1nc2c(C)cc3ccccc3n2c1=O [CBK283879] | 146.554%
75 | CCOc1cc(NC2CCN(C(=O)C3(CC(C)C)CCC3)CC2)ncn1 [CBK304136] | 81.1497%
76 | COc1cccc(NC(=O)c2ccnc(Cl)c2)c1 [CBK174661] | 94.0129%
77 | Cc1cc(C)cc(NC(=O)NCCc2cccs2)c1 [CBK044998] | 119.121%
78 | O=C(O)CCC(=O)N1C[C@@H]2C[C@H](C1)c1c(-c3ccc(Cl)cc3)ccc(=O)n1C2 [CBK289190] | 132.469%
79 | Cc1ccc(S(=O)(=O)CC(=O)Nc2nc3ccc(C)cc3s2)cc1 [CBK287705] | 128.076%
80 | Cc1cc(-c2cn3cc(C(=O)N4CCCC4)nc3c(=O)n2C)c(C)o1 [CBK307300] | 125.646%
